Measured values from the supplement of paper PMC9454738.
± gives the standard deviation of the averaged measurements. This is one part of the list. Repeats in this data set agree poorly, so a single value says little.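 Test systems: triple-negative MDA-MB-231 breast cancer cells and their brain-metastatic MDA-MB-231BRM derivative, each stably carrying empty vector, full-length GLI1 or truncated tGLI1. Viability after 48 h was read by CellTiter-Blue and expressed against 1% DMSO vehicle. A compound was tGLI1-selective if it lowered viability 20% more in tGLI1 cells than in vector and GLI1 cells.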

What was measured:
Assay in all cases: cell viability relative to vehicle (DMSO) control (fraction); higher = more viable cells (less growth inhibition)
Settings in all cases: treatment time 48 h
[1] = test system: MDA-MB-231 GLI1
[2] = test system: MDA-MB-231 Vector
[3] = test system: MDA-MB-231 tGLI1
[4] = test system: MDA-MB-231BRM GLI1
[5] = test system: MDA-MB-231BRM Vector
[6] = test system: MDA-MB-231BRM tGLI1

Row | Compound | cell viability ([1]; 0.05 µM) | cell viability ([1]; 0.5 µM) | cell viability ([1]; 5 µM) | cell viability ([2]; 0.05 µM) | cell viability ([2]; 0.5 µM) | cell viability ([2]; 5 µM) | cell viability ([3]; 0.05 µM) | cell viability ([3]; 0.5 µM) | cell viability ([3]; 5 µM) | cell viability ([4]; 0.05 µM) | cell viability ([4]; 0.5 µM) | cell viability ([4]; 5 µM) | cell viability ([5]; 0.05 µM) | cell viability ([5]; 0.5 µM) | cell viability ([5]; 5 µM) | cell viability ([6]; 0.05 µM) | cell viability ([6]; 0.5 µM) | cell viability ([6]; 5 µM)
1 | CCOc1ccn(-c2ccc(F)cc2)c(=O)c1C(=O)Nc1ccc(Oc2ccnc(N)c2Cl)c(F)c1 | 1.39 | 1.63 | 1.15 | 1.93 | 1.18 | 0.866 | 1.2 | 1.26 | 0.869 | 1.11 | 1.18 | 0.893 | 0.923 | 1.02 | 0.924 | 0.988 | 1.15 | 0.822
2 | NC(=O)c1cn(Cc2c(F)cccc2F)nn1 [Rufinamide (Banzel)] | 1.13 | 1.08 | 1.06 | 0.952 | 1.15 | 1.19 | 1.08 | 1.11 | 1.06 | 0.987 | 0.98 | 0.972 | 1.05 | 0.928 | 0.983 | 0.939 | 1.02 | 1.04
3 | COc1cc(Nc2ncc(F)c(Nc3ccc4c(n3)NC(=O)C(C)(C)O4)n2)cc(OC)c1OC | 1.34 | 1.26 | 0.469 | 1.77 | 0.587 | 0.367 | 1.25 | 1.29 | 0.373 | 1.1 | 0.993 | 0.997 | 1.19 | 0.952 | 1.12 | 0.651 | 1.01 | 0.927
4 | COc1cc2/c(=N/c3ccc(Br)cc3F)nc[nH]c2cc1OCC1CCN(C)CC1 [Vandetanib (ZD6474)] | 1.37 | 1.76 | 0.97 | 1.22 | 1.2 | 0.75 | 1.2 | 1.51 | 0.927 | 0.931 | 0.945 | 0.938 | 0.912 | 0.907 | 0.972 | 1.03 | 0.949 | 0.933
5 | CCN1CCN(Cc2ccc(Nc3ncc(F)c(-c4cc(F)c5nc(C)n(C(C)C)c5c4)n3)nc2)CC1 | 0.977 | 0.918 | 0.163 | 1.14 | 0.81 | 0.231 | 1.02 | 0.82 | 0.152 | 0.969 | 0.919 | 0.82 | 0.9 | 1.04 | 0.846 | 0.96 | 0.951 | 0.762
6 | CNC(=O)c1cc(Oc2ccc(NC(=O)Nc3ccc(Cl)c(C(F)(F)F)c3)c(F)c2)ccn1 [Regorafenib (BAY 73-4506)] | 1.15 ± 0.16 | 0.926 ± 0.17 | 0.595 ± 0.02 | 1.19 ± 0.14 | 0.859 ± 0.18 | 0.422 ± 0.0043 | 0.987 ± 0.18 | 0.887 ± 0.11 | 0.44 ± 0.073 | 1.03 ± 0.045 | 1.03 ± 0.037 | 0.714 ± 0.032 | 0.968 ± 0.047 | 0.985 ± 0.019 | 0.849 ± 0.019 | 1.016 ± 0.0059 | 0.988 ± 0.075 | 0.803 ± 0.037
7 | CNc1nc(Nc2cn(C(C)(C)C#N)nc2C)ncc1C(F)(F)F | 1.03 | 1.78 | 1.11 | 0.691 | 0.75 | 0.74 | 0.804 | 0.764 | 0.831 | 0.535 | 0.482 | 0.463 | 0.582 | 0.527 | 0.477 | 0.826 | 0.66 | 0.688
